Source: PubChem BioAssay AID588590 (National Center for Advancing Translational Sciences (NCATS), 2011)
About 4,000 (1%) of roughly 390,000 compounds were called active. The call rests on the fitted dose curve; in most records, active means well fitted inhibition curve with a large enough effect; inconclusive means small, poorly fitted or top-dose-only effect, or another doubt; inactive means no such curve, though single readings can be large or run the other way. Inconclusive results, whose numbers are uncertain, are shown. Where the call is inconclusive, the potency comes from a doubtful curve fit.

Chains of the proteins cited; added tags and fusions are not shown. Lines headed by an entry give the natural chain unless they say otherwise; changes in a name come on top.
UniProt Q9UNA4: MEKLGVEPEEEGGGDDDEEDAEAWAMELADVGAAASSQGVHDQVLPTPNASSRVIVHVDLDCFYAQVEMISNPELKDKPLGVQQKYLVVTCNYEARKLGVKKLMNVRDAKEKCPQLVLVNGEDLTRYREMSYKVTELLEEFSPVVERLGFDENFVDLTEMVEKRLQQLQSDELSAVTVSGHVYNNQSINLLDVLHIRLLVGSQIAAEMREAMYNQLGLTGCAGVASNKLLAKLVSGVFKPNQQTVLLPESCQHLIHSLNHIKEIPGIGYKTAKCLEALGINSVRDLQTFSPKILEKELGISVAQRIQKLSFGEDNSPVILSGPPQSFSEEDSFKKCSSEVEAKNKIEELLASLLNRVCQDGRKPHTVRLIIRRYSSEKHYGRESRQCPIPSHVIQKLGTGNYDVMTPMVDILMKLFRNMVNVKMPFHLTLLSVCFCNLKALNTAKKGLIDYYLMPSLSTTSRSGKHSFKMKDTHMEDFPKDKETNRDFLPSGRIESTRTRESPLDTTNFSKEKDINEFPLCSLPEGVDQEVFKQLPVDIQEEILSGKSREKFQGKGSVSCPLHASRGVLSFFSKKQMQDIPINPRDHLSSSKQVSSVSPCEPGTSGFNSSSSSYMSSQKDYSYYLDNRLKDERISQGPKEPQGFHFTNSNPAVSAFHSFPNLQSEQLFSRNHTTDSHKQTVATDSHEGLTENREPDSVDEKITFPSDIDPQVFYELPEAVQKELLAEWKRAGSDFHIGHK

Biological target: DNA polymerase iota (Homo sapiens) (UniProt Q9UNA4)
Test: qHTS for Inhibitors of Polymerase Iota
Details: Pol iota fluorescent replication assay, 10 min; series mostly up to 115 µM
Text: DNA polymerases, such as Pol iota, are specifically involved in DNA repair. Pol iota specifically plays an important role in translesion synthesis, where the normal high-fidelity DNA polymerases cannot proceed and DNA synthesis stalls. […] Thus, while pol eta's (and most likely iota's) normal function is to protect humans against the deleterious consequences of DNA damage, under certain conditions they can have deleterious effects on human health. As a consequence, we propose to utilize a high throughput replication assay to identify small molecule inhibitors of pol iota.
In a collaboration between the National Institute of Child Health & Human Development (NICHD) and NIH Chemical Genomics Center, a high-throughput, fluorescent screen was developed to screen the NIH Molecular Libraries Small Molecule Repository (MLSMR). This screen is used to identify inhibitors of pol iota.
NIH Chemical Genomics Center [NCGC]
NIH Molecular Libraries Probe Centers Network [MLPCN]
Assay Submitter (PI): Roger Woodgate, NICHD)
Three microliters of reagents (buffer in column 3 and 4 as negative control and 10 nM Pol iota in columns 1, 2, and 5-48) will be dispensed into 1,536-well black solid-bottomed plate. Compounds (23 nL) will be transferred via Kalypsys pin tool equipped with 1536-pin array. The plates will then be incubated for 15 min at room temperature, and 1 µL substrate (50 nM final concentration) will be added to start the reaction and kinetically read twice at 0 min and 10 min on the Viewlux reader.
Potency means the concentration at half of the fitted maximal effect.

| Structure (SMILES) | Potency |
| --- | --- |
| Cc1ccccc1N/N=C/c1sc(=O)n(Cc2cccc(C(=O)O)c2)c1Cl | inconclusive: 12.6 µM [inhibitor, full curve, poor fit] |
| CCOC(=O)C1=C(C)N=c2s/c(=C\c3ccc(OCC(=O)O)c(OC)c3)c(=O)n2C1c1ccc(OC)cc1 (stereo unspecified) | inconclusive: 15.8 µM [inhibitor, partial curve] |
| COc1cc(/C=N/Nc2ccc(Cl)c(C(=O)O)c2)ccc1OC(=O)c1ccc(F)cc1 | inconclusive: 25.1 µM [inhibitor, full curve] |
| CCOc1cc(/C=C2/C(=N)N3C(=NC2=O)SN=C3S(C)(=O)=O)ccc1OS(=O)(=O)c1ccccc1 | inconclusive: 15.8 µM [inhibitor, full curve, poor fit] |
| COc1cc(/C=C2/C(=O)NN(c3ccc(Cl)cc3)C2=O)cc(Br)c1O | inconclusive: 25.1 µM [inhibitor, single point] |
| Cc1cc(C)cc(-n2cccc2/C=C2/C(=N)N3C(=NC2=O)SN=C3S(C)(=O)=O)c1 | inconclusive: 31.6 µM [inhibitor, single point] |
